Assay results as given in article PMC4928127, “Determination of GLUT1 Oligomerization Parameters using Bioluminescent Förster Resonance Energy Transfer” (Scientific Reports, 2016).
Results are given in words; binding and its absence hold for the method and conditions named. Binding seen in cells or lysates may run through a third protein. Some results given as binding are weak or reduced against the parent protein; the word gives no strength. Where a sequence is shown, tags or fusion partners need not be part of it.

How the values were obtained:
[1] = target: T1, mCherry-GLUT1-Nluc dual fusion protein (mouse) (UniProt P17809); experiment: FRET or BRET; unlabeled competition assay in live 293FT cells: increasing amounts of unlabeled GLUT1 co-transfected with the donor and acceptor fusion proteins or with the dual fusion protein
T1 sequence: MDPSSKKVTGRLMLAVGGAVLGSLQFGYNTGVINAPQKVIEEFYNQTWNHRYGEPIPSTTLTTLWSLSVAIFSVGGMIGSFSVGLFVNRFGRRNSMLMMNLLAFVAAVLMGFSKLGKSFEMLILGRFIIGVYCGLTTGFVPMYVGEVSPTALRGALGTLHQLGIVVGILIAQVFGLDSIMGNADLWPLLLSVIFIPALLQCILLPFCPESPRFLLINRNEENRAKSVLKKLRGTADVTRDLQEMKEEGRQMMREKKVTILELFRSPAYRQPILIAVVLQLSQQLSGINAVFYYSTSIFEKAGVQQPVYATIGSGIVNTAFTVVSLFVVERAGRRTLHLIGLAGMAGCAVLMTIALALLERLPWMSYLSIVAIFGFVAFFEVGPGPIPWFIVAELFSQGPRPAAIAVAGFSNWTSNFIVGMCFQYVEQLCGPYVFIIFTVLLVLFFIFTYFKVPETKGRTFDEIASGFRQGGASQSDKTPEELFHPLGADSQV

[2] = target: T2, Nluc-GLUT1 (mouse, UniProt P17809 1-492); experiment: as above
T2 construct: facilitated glucose transporter GLUT1 (SLC2A1), mouse Glut1 open reading frame; BRET donor; also called GLUT1 fused to Nluc at the N-terminus; not shown: Nanoluciferase (Nluc), N-terminal, kept
T2 sequence (looked up): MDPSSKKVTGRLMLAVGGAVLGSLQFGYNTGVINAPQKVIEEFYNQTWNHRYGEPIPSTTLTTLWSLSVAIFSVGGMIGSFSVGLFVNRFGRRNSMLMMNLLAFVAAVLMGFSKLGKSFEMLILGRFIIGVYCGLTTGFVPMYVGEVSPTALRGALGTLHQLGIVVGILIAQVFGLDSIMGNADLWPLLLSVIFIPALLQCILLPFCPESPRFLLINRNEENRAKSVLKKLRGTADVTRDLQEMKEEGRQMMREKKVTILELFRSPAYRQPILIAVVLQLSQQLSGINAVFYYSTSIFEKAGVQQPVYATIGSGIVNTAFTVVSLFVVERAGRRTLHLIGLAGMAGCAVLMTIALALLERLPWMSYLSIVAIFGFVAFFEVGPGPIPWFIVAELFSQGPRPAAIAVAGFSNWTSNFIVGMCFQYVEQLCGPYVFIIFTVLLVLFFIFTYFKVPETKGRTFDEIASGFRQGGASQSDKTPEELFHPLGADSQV

[3] = target: T2, Nluc-GLUT1; experiment: FRET or BRET; live 293FT-HEK cells transiently co-transfected (in cis) with increasing amounts of Nluc-GLUT1 and mCherry-GLUT1; absolute BRET ratio, compared with a 1:1 mix of separately transfected cells (trans)
[4] = target: T2, Nluc-GLUT1; experiment: condition: only cell membrane complexes disrupted with detergents; FRET or BRET; emission spectrum of Nluc-Glut1 with doxycycline-inducible mCherry-Glut1 (monochromator), cell membrane complexes disrupted with detergents
[5] = target: T2, Nluc-GLUT1; experiment: FRET or BRET; saturation BRET in live 293FT cells: fixed amount of Nluc donor fusion, increasing amounts of mCherry acceptor fusion, transient transfection; corrected BRET against acceptor:donor plasmid ratio, fit to standard binding curves
[6] = target: T3, GLUT1-Nluc (mouse) (UniProt P17809); experiment: as above
T3 sequence: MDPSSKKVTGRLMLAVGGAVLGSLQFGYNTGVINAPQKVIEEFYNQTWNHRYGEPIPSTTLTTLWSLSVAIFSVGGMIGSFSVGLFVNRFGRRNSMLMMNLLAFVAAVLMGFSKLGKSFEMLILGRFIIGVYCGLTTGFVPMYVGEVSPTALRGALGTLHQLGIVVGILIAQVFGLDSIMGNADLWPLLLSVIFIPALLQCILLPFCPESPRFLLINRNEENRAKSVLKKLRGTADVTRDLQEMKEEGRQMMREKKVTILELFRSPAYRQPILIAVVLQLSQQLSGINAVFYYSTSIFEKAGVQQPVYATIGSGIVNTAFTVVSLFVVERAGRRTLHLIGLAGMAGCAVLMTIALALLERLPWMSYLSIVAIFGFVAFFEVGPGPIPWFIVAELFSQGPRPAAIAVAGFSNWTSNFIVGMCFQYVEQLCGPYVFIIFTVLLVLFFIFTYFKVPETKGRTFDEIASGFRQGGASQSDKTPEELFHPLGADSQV

Binder | binding [1] | binding [2] | binding [3] | binding [4] | binding [5] | binding [6]
mCherry-GLUT1-Nluc dual fusion protein (protein, UniProt P17809 1-492) MDPSSKKVTGRLMLAVGGAVLGSLQFGYNTGVINAPQKVIEEFYNQTWNHRYGEPIPSTTLTTLWSLSVAIFSVGGMIGSFSVGLFVNRFGRRNSMLMMNLLAFVAAVLMGFSKLGKSFEMLILGRFIIGVYCGLTTGFVPMYVGEVSPTALRGALGTLHQLGIVVGILIAQVFGLDSIMGNADLWPLLLSVIFIPALLQCILLPFCPESPRFLLINRNEENRAKSVLKKLRGTADVTRDLQEMKEEGRQMMREKKVTILELFRSPAYRQPILIAVVLQLSQQLSGINAVFYYSTSIFEKAGVQQPVYATIGSGIVNTAFTVVSLFVVERAGRRTLHLIGLAGMAGCAVLMTIALALLERLPWMSYLSIVAIFGFVAFFEVGPGPIPWFIVAELFSQGPRPAAIAVAGFSNWTSNFIVGMCFQYVEQLCGPYVFIIFTVLLVLFFIFTYFKVPETKGRTFDEIASGFRQGGASQSDKTPEELFHPLGADSQV | binds | – | – | – | – | –
unlabeled GLUT1 (protein, UniProt P17809 1-492) MDPSSKKVTGRLMLAVGGAVLGSLQFGYNTGVINAPQKVIEEFYNQTWNHRYGEPIPSTTLTTLWSLSVAIFSVGGMIGSFSVGLFVNRFGRRNSMLMMNLLAFVAAVLMGFSKLGKSFEMLILGRFIIGVYCGLTTGFVPMYVGEVSPTALRGALGTLHQLGIVVGILIAQVFGLDSIMGNADLWPLLLSVIFIPALLQCILLPFCPESPRFLLINRNEENRAKSVLKKLRGTADVTRDLQEMKEEGRQMMREKKVTILELFRSPAYRQPILIAVVLQLSQQLSGINAVFYYSTSIFEKAGVQQPVYATIGSGIVNTAFTVVSLFVVERAGRRTLHLIGLAGMAGCAVLMTIALALLERLPWMSYLSIVAIFGFVAFFEVGPGPIPWFIVAELFSQGPRPAAIAVAGFSNWTSNFIVGMCFQYVEQLCGPYVFIIFTVLLVLFFIFTYFKVPETKGRTFDEIASGFRQGGASQSDKTPEELFHPLGADSQV | binds | binds | – | – | – | –
mCherry-GLUT1 (natural protein, mouse, UniProt P17809 1-492, looked up, facilitated glucose transporter GLUT1 (SLC2A1), mouse Glut1 open reading frame; BRET acceptor; also called GLUT1 fused to mCherry at the N-terminus; not shown: mCherry, N-terminal, kept) MDPSSKKVTGRLMLAVGGAVLGSLQFGYNTGVINAPQKVIEEFYNQTWNHRYGEPIPSTTLTTLWSLSVAIFSVGGMIGSFSVGLFVNRFGRRNSMLMMNLLAFVAAVLMGFSKLGKSFEMLILGRFIIGVYCGLTTGFVPMYVGEVSPTALRGALGTLHQLGIVVGILIAQVFGLDSIMGNADLWPLLLSVIFIPALLQCILLPFCPESPRFLLINRNEENRAKSVLKKLRGTADVTRDLQEMKEEGRQMMREKKVTILELFRSPAYRQPILIAVVLQLSQQLSGINAVFYYSTSIFEKAGVQQPVYATIGSGIVNTAFTVVSLFVVERAGRRTLHLIGLAGMAGCAVLMTIALALLERLPWMSYLSIVAIFGFVAFFEVGPGPIPWFIVAELFSQGPRPAAIAVAGFSNWTSNFIVGMCFQYVEQLCGPYVFIIFTVLLVLFFIFTYFKVPETKGRTFDEIASGFRQGGASQSDKTPEELFHPLGADSQV | – | binds | binds | no binding | binds | binds
GLUT1 with the mCherry acceptor fused to the C-terminus (protein, UniProt P17809 1-492) MDPSSKKVTGRLMLAVGGAVLGSLQFGYNTGVINAPQKVIEEFYNQTWNHRYGEPIPSTTLTTLWSLSVAIFSVGGMIGSFSVGLFVNRFGRRNSMLMMNLLAFVAAVLMGFSKLGKSFEMLILGRFIIGVYCGLTTGFVPMYVGEVSPTALRGALGTLHQLGIVVGILIAQVFGLDSIMGNADLWPLLLSVIFIPALLQCILLPFCPESPRFLLINRNEENRAKSVLKKLRGTADVTRDLQEMKEEGRQMMREKKVTILELFRSPAYRQPILIAVVLQLSQQLSGINAVFYYSTSIFEKAGVQQPVYATIGSGIVNTAFTVVSLFVVERAGRRTLHLIGLAGMAGCAVLMTIALALLERLPWMSYLSIVAIFGFVAFFEVGPGPIPWFIVAELFSQGPRPAAIAVAGFSNWTSNFIVGMCFQYVEQLCGPYVFIIFTVLLVLFFIFTYFKVPETKGRTFDEIASGFRQGGASQSDKTPEELFHPLGADSQV | – | – | – | – | binds weakly | –
